## Screening data, single-dose tests

From ChEMBL document CHEMBL3988442, “University of Dundee, Small-Polar-MMV Screening Library” (2021).

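Whole-cell growth test on Mycobacterium tuberculosis, read after 3 days in glucose-containing 7H9 medium; the read-out is not stated. Concentration: 50 µM. Higher reads as more growth inhibition (inferred: compounds with an IC50 in retests scored well above the rest). Size under these conditions: about 69,000 compounds, about 760 of them at 50% or above in at least one test.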

Results are given as percent effect. The controls that fix the scale are not given in the record; negative values are as filed. This is an unselected part of the compounds tested. Two or more numbers in one place are separate tests of the same structure; such repeats can differ widely.

* [H][C@]12CC[C@]([H])(CN(Cc3ccccc3)C1)N(C(=O)CNC(N)=O)C2 : -11.28% & -23.38%
* COc1ccc(C(N)=O)cc1NCc1ncc(-c2cccs2)o1 : 5.328%
* COc1ccccc1C(=O)Nc1cc(CC(C)C)nn1C : 24.36%
* Cc1cc(F)ccc1CNCCn1cccn1 : 0.8345% & -1.19%
* Cc1cc(NC(=O)CN2CCOC(CN(C)C)C2)n(C)n1 (configuration not stated) : -1.773% & -31.45%
* CC(C)COC(C)C(=O)N1CCCCC1 (configuration not stated) : 2.108%
* O=C(O)C(F)(F)F.[H][C@]12CCC[C@@]1(COCc1ccncc1)CN(C(=O)C1=CCCC1)C2 : 33.5% & 1.684%
* CNC(=O)CC1CCN(C(=O)NCC2(c3ccccc3F)CC2)CC1 : 4.687%
* COCCN1C[C@@H](C)[C@@]2(COCCN(C(=O)c3ccno3)C2)C1.O=C(O)C(F)(F)F : -1.931% & -2.224%
* N#Cc1cc2cc(Cl)cnc2nc1O : 7.169% & -1.111%
* COc1ccc2cnn(CC(=O)NC3CCCC3)c(=O)c2c1OC : 8.168% & 2.943%
* Cn1cc(CN2CCC(c3[nH]ncc3S(C)(=O)=O)C2)cn1 (configuration not stated) : -12.92%
* COc1ccccc1CC(=O)N1CCC(NCc2cc[nH]c2)CC1 : -7.031%
* CS(=O)(=O)c1nccn1Cc1ccc(C(N)=O)cc1 : 17.14%
* CC(=O)N1CCCC1c1ccc(-c2c(C)noc2C)cn1 (configuration not stated) : 18.51%
* Cc1ccnc(NCCNC(=O)CCNC(=O)c2ccccc2F)c1 : -17.74%
* Cc1noc(C)c1CNc1cccc(C(=O)N(C)c2ccccc2)c1 : -19.07%
* Cc1ccc(Oc2ncccc2CNC2CCCCC2)cn1 : -25.07% & 2.649%
* Cc1nonc1CNC(=O)C(C)Oc1ccccc1F (configuration not stated) : 13.47%
* Cc1ccc(OCC(O)COC2CCOCC2)c(Br)c1 (configuration not stated) : 39.31%
* O=C(NCc1cc[nH]n1)NCC(O)c1ccc(F)cc1 (configuration not stated) : 9.189%
* Cl.Cl.O=C(CN1CCN(CC(O)C2CC2)CC1)NCc1ccccc1 (configuration not stated) : -13.98%
* CC(C)C(=O)NCC(=O)NCC1CCN(c2cnn(C)c(=O)c2)CC1 : 11.01%
* COCCCC(=O)N1CCC(Nc2cccnn2)CC1 : 6.38%
* O=C(O)C(F)(F)F.[H][C@@]12CCN(C3CCC3)[C@]1([H])CC[C@H](C(=O)NCc1ccco1)O2 : 19.49%
* NC(=O)c1c(NC(=O)C2CCCO2)sc2c1CCc1ccccc1-2 (configuration not stated) : 32.19%
* CCCc1nn(Cc2csc(C(C)C)n2)c(=O)o1 : 53.02%
* CCC(C)c1noc(C2CCN(C(=O)c3ccccn3)CC2)n1 (configuration not stated) : 15.77%
* N#CCCN1CC(O)CN(C(=O)c2cccc(C(F)(F)F)c2)CC1=O (configuration not stated) : 6.104%
* [H][C@@]12CN(C(=O)CC(F)(F)F)C[C@@]1([H])N(CC(C)C)C(=O)CO2 : -14.07% & 0.9552%
* Cc1cccc(N(CCC(N)=O)CC(=O)Nc2ccccc2)c1 : 27.27%
* CCCN(C(=O)c1cccnc1)c1nc2c(s1)CCc1c-2cnn1C : 41.92%
* CC(C)S(=O)(=O)N1CCCC(c2cccc(C(=O)O)c2)C1 (configuration not stated) : -1.312% & 1.595%
* CC(C)C(C)N(C)Cc1nnc(-c2ccc(Br)s2)o1 (configuration not stated) : 51.47%
* O=C(NCCCn1ccnc1)N1CCCC1c1ccsc1 (configuration not stated) : -2.647%
* Cc1nn(C)c(Oc2ccc(Cl)cc2)c1CN1CCC(CN)C1 (configuration not stated) : 37.77%
* Cc1noc(C(C)C)c1C(=O)NCC(c1cccs1)N(C)C (configuration not stated) : -3.267% & 2.114%
* Cc1nn(C)c(C)c1C1CCCN1C(=O)c1ccc(N(C)C)nc1 (configuration not stated) : -37.21%
* N#Cc1ccc2c(c1)CN(C(=O)c1nc[nH]n1)C2c1cnco1 (configuration not stated) : -5.299% & -14.36%
* Cc1noc2ncc(C(=O)N3CCCC3c3cnn(C)c3)cc12 (configuration not stated) : 6.129%
* CCc1nc2n(n1)CC(NCC(=O)Nc1cc(C(C)(C)C)no1)CC2 (configuration not stated) : -1.365% & -45.17%
* Cc1nonc1CN(C)c1nc(-c2cccnc2)nc2c1CCNC2 : -2.763%
* CC(NCCCN1CCCC1=O)c1cc(Br)ccc1O (configuration not stated) : -3.522% & 1.601%
* [H][C@]12CN(Cc3cccc(C)c3)C(=O)[C@@]1([H])CN(S(=O)(=O)CC)C2 : 4.336%
* CC(C)Oc1cccc(CN2CCC(C(C)N3CCOCC3)CC2)c1 (configuration not stated) : 25.64%

The last 4 entries again:

| Compound | percent effect |
|---|---|
| `Cc1nonc1CN(C)c1nc(-c2cccnc2)nc2c1CCNC2` | -2.763 |
| `CC(NCCCN1CCCC1=O)c1cc(Br)ccc1O` (configuration not stated) | -3.522 & 1.601 |
| `[H][C@]12CN(Cc3cccc(C)c3)C(=O)[C@@]1([H])CN(S(=O)(=O)CC)C2` | 4.336 |
| `CC(C)Oc1cccc(CN2CCC(C(C)N3CCOCC3)CC2)c1` (configuration not stated) | 25.64 |